The target in assay [1] is giantin (human (endogenous in HeLa, LNCaP, PC-3, liver tissue)) (UniProt Q14789). In words: co-IP.
In assay [2] the target is Rab6a GTPase (human (endogenous in LNCaP)) (UniProt P20340). Nature of the assay: co-IP.
Assay [3] has as its target T1, biotin-MLKKQS peptide that matches CT of MGAT1 (human).
T1 sequence (peptide, biotin on the N-terminus): MLKKQS
Nature of the assay: pull-down.

By UniProt entry, the sequences of proteins in these tests, tags left out.
UniProt Q14789: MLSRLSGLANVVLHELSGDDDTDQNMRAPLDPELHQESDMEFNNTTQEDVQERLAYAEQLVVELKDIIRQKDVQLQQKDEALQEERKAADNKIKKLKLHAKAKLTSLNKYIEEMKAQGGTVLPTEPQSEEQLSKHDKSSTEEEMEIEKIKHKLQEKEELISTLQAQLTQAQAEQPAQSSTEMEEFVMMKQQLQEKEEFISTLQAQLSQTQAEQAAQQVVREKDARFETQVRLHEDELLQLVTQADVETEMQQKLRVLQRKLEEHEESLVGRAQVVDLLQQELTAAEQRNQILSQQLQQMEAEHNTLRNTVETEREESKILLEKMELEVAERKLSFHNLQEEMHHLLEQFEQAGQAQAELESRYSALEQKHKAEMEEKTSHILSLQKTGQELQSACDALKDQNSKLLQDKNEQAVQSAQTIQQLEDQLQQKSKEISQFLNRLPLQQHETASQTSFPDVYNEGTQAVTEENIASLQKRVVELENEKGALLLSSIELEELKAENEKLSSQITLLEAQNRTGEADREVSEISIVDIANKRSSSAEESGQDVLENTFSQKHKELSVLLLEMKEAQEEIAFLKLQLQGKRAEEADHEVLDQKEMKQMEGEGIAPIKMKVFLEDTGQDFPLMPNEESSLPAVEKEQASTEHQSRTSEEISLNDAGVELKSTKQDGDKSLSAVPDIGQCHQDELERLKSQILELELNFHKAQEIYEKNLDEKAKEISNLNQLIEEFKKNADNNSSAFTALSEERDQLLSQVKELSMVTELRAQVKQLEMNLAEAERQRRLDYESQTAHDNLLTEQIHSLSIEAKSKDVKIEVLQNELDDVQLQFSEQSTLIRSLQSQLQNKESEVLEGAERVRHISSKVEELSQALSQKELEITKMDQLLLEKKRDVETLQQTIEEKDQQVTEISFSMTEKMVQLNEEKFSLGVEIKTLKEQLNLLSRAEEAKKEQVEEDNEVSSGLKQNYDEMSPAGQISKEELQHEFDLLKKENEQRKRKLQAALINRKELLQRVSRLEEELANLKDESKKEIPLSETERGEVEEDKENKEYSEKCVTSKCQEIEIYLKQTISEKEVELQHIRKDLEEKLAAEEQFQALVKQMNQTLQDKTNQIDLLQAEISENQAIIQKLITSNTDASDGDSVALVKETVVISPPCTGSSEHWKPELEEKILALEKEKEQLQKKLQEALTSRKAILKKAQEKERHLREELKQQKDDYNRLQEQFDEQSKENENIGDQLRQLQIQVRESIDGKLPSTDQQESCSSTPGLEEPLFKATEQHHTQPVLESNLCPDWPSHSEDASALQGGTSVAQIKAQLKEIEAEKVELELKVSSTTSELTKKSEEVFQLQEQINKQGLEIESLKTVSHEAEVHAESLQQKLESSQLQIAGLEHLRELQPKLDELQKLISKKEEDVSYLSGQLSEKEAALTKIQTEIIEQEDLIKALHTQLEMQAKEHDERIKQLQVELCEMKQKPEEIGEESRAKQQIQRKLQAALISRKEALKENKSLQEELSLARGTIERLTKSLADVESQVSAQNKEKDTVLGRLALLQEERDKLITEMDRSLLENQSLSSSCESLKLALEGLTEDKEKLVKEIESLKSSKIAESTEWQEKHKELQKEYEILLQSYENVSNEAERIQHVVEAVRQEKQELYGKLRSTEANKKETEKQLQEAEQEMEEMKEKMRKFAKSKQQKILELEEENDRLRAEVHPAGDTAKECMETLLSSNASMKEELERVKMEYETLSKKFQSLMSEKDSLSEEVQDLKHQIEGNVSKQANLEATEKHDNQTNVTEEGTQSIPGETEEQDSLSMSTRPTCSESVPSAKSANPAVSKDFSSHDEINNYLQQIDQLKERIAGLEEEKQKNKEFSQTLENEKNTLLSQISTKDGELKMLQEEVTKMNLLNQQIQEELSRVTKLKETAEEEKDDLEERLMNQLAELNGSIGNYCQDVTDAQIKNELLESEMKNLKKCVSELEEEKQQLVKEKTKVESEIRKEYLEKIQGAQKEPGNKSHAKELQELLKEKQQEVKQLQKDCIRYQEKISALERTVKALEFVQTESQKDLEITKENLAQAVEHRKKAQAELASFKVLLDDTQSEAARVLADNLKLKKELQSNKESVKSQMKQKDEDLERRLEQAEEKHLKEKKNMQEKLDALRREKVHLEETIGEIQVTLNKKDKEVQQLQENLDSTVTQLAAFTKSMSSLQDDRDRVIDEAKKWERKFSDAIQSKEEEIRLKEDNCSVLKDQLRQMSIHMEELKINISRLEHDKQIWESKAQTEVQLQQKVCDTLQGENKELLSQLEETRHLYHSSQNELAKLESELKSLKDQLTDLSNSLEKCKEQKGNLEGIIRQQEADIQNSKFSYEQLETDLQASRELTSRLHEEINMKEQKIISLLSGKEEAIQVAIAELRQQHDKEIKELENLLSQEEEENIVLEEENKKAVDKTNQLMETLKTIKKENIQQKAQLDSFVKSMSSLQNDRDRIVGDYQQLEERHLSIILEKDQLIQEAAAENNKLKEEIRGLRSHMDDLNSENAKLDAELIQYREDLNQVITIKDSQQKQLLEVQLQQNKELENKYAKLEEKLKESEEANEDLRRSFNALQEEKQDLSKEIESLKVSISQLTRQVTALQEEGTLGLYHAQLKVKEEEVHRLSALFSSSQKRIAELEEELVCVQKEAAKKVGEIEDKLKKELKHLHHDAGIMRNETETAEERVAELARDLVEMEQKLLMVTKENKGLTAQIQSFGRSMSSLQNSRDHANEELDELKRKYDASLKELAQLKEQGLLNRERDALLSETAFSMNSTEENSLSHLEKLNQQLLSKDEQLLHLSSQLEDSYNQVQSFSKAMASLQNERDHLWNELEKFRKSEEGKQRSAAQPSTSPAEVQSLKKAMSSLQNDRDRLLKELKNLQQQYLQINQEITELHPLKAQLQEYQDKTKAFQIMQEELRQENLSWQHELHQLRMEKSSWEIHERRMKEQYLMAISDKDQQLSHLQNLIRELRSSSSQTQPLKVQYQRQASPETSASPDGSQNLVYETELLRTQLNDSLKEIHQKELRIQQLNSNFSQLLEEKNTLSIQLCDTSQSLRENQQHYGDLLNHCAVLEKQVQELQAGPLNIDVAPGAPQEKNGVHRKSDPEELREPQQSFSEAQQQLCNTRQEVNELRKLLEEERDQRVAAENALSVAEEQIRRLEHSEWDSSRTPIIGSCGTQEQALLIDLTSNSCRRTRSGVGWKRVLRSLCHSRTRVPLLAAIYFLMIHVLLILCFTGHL
UniProt P20340: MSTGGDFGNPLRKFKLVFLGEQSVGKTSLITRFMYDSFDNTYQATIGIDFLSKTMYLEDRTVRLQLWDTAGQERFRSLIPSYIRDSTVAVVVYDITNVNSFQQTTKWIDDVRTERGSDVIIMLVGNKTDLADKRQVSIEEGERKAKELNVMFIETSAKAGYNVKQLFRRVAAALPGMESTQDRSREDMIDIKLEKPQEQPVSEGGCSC
UniProt P35579: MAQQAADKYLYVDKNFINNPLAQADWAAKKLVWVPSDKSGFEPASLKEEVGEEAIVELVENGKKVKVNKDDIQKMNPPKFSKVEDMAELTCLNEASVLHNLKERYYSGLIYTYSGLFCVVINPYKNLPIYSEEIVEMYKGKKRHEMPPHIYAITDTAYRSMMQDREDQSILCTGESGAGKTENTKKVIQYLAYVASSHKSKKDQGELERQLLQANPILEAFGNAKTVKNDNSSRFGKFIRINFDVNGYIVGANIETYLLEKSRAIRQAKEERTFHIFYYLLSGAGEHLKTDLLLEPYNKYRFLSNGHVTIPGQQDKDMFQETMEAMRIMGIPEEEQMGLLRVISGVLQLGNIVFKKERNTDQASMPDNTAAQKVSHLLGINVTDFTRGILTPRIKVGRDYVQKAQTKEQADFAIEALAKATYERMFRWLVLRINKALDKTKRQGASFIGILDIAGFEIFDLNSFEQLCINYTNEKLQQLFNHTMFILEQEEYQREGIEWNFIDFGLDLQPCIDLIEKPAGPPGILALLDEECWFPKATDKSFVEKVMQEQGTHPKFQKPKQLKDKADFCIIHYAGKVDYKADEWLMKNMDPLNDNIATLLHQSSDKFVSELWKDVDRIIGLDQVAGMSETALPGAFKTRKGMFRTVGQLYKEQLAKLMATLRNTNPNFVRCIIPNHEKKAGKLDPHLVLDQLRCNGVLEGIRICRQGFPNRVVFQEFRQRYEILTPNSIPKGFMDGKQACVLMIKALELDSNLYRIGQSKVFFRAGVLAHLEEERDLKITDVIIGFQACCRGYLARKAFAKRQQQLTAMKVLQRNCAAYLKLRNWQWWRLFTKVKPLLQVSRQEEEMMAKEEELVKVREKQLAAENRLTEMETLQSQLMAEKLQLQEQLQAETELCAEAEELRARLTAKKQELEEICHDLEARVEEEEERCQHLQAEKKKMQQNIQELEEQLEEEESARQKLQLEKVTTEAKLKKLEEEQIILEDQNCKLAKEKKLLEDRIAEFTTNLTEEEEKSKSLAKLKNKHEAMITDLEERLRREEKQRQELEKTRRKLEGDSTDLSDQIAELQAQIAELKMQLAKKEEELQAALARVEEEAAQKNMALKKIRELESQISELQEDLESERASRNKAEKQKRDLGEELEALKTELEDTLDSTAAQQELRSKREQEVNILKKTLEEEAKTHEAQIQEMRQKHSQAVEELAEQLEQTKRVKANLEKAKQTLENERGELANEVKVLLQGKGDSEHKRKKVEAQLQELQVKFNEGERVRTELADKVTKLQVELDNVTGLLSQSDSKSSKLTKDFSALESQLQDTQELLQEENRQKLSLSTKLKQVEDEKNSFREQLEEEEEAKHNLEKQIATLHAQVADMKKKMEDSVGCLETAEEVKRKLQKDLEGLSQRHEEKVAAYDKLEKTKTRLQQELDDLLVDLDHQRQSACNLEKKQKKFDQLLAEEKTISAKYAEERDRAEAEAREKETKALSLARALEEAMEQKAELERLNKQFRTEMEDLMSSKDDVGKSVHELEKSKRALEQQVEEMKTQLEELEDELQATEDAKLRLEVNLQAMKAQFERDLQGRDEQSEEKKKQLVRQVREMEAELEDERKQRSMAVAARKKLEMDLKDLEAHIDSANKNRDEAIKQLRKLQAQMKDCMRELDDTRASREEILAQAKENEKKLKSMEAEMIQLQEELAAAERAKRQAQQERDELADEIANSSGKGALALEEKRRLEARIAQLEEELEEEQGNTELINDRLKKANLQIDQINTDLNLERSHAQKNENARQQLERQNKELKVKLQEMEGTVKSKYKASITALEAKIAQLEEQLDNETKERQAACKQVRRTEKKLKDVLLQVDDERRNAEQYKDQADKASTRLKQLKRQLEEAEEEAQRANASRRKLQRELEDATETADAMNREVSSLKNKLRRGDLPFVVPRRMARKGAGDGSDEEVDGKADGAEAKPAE

These are yes or no findings as the source states them, for the method shown. In cells and extracts the contact can be indirect. Some binding calls cover weakened binding; strength is not graded here.

Turning to “Rab6a GTPase (from UniProt P20340 1-208)”, the binding result in assay [1] is “binds”.

In the case of giantin (from UniProt Q14789 1-3259), the binding entry in assay [2] and in assay [3] was “binds” in each case.

As to “non-muscle Myosin IIA (NMIIA) (from UniProt P35579 1-1960)”, in assay [2], the binding result is listed as “binds”.

Values taken from article doi:10.1101/296517.
